# Data from publication PMC7862700.
# The list shows a part of the results. The source does not settle which construct or isoform was used.
# Target: T1, ETS1 (UniProt P14921)
# T1 sequence: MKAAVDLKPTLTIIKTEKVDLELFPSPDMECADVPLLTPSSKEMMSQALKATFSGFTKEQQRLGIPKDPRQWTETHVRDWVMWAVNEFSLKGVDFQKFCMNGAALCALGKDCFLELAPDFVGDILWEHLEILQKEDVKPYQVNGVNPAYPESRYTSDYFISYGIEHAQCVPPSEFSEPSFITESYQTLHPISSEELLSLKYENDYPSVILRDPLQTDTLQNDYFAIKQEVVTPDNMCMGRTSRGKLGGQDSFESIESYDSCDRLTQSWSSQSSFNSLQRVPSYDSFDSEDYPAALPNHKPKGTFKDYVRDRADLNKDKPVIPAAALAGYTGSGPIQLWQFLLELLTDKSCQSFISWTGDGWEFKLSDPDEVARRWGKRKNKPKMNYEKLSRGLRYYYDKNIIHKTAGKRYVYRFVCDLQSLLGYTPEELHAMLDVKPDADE
# Test: DAPPL (digital affinity profiling via proximity ligation, sequencing)
# Details: 10 mM Tris-HCl pH 7.5, 50 mM NaCl, 1 mM DTT, 4% glycerol, room temperature, 30 min; GST-TFs on glutathione beads, 16-mer random dsDNA library, 0.1% …; high values mean tight binding; double strand, one strand shown; scale: fold enrichment (6-mer frequency, TF over GST control)
row,Sequence,binding signal
1,GGTAAT,1.17
2,TCCAAA,1.22
3,TGTTGA,1.02
4,TAAGTT,1.3
5,CACAAG,1.16
6,TGCCAT,1.07
7,TGTGCC,1.12
8,TTCCAT,1.32
9,CTCCGA,1.34
10,TTTTCG,1.2
11,AAACTC,1.19
12,CAATGC,1.28
13,CTATCC,1.47
14,CAACTT,1.62
15,ATCCCA,1.17
16,GAATTG,1.1
17,ATTAAC,1.25
18,TTTGTG,1.14
19,ATTGTA,1.28
20,GTTGCT,1.31

# As a short view, some entries already given.
row,Sequence,binding signal
8,TTCCAT,1.32
9,CTCCGA,1.34

# Additional entries

row,Sequence,binding signal
1,ACATAG,1.06
2,AGTGCA,0.957
3,CCACGA,1.18
4,GACGAC,1.11
5,TACTCC,1.29
6,CTCCAC,1.48
7,ACTCTG,1.29
8,ACGCGC,1.01
9,TATTGA,1.13
10,CTCGCA,1.35
11,AACCCG,1.47
12,ATGATG,1.39
13,TATGAC,1.27
14,TGATCA,1.03
15,CCCTTG,1.3
16,TATCGC,1.22
17,TTGCGA,1.05
18,TGTGAT,1.05
19,CTAGGC,0.998
20,CGCAAC,1.07
